Experimental data from patent EP0339444A1, “Elaiophylin derivatives, process for their preparation and use as medicaments” (HOECHST AKTIENGESELLSCHAFT, priority 1988, dated 1989).
The name of at least one read-out is uncertain.

System: Haemunchus contortus
Assay: Anthelmintic activity in lambs artificially infected with abomasal nematodes (coproscopy up to 14 days after application, then necropsy with helminthological work-up)
Assay type: in vivo
Conditions: Lämmer 30 bis 40 kg
From the text: Die anthelminthische Wirkung der Elaiophylinderivate wurde an Lämmern mit 30 bis 40 kg Körpergewicht untersucht. Dazu wurden die Lämmer artifiziell mit Infektionsstadien von Labmagennematoden (Haemunchus contortus) infiziert. Nach Abschluß der Entwicklungszeit (Präpatenzperiode) der Nematoden erfolgte die Applikation der Elaiophylinderivate.
Durch koproskopische Untersuchungen vor und bis zu 14 Tagen nach der Applikation der Elaiophylinderivate und anschließender Sektion mit helminthologischer Aufarbeitung wurde die prozentuale Reduktion der Schaf-Nematoden ermittelt (s. Tabelle 7). Als Vergleichssubstanz diente Elaiophylin. Zusätzlich wurde auch noch die antibakterielle Aktivität der erfindungsgemäßen Elaiophylinderivate gegen Staph. aureus und Strept. pyogenes ermittelt. Überraschenderweise zeigen die erfindungsgemäßen Verbindung keine oder nur sehr geringe antibakterielle Aktivität. Gerade deshalb eignen sich die erfindungsgemäßen Verbindungen insbesondere für den Einsatz als Anthelminthika, da hier eine antibakterielle Wirkung unerwünscht ist.

| SMILES | Reduktion v. H. contortus (%) (Dosierung 2,5 mg/kg (s.c.)) | Reduktion v. H. contortus (%) (Dosierung 5,0 mg/kg (oral)) | Reduktion v. H. contortus (%) (Dosierung 5,0 mg/kg (s.c.)) |
| --- | --- | --- | --- |
| CCC1C(C)OC(O)(C(C)C(O)C(C)C2OC(=O)C3=NN(C(C)=O)CC3/C=C/C(C)C(C(C)C(O)C(C)C3(O)CC(OC4CC(OC(C)=O)C(OC(C)=O)C(C)O4)C(CC)C(C)O3)OC(=O)C3=NN(C(C)=O)CC3/C=C/C2C)CC1OC1CC(OC(C)=O)C(OC(C)=O)C(C)O1 (centres unmarked) [Verbindung 3] | 30-40% | 70-80% | – |
| CCC1C(C)OC(OC)(C(C)C(O)C(C)C2OC(=O)C3=NNCC3/C=C/C(C)C(C(C)C(O)C(C)C3(OC)CC(OC4CC(O)C(O)C(C)O4)C(CC)C(C)O3)OC(=O)C3=NNCC3/C=C/C2C)CC1OC1CC(O)C(O)C(C)O1 (centres unmarked) [Verbindung 4] | 30-40% | 50-70% | – |
| CCC1C(C)OC(O)(C(C)C(O)C(C)C2OC(=O)C3C(/C=C/C(C)C(C(C)C(O)C(C)C4(O)CC(OC5CC(O)C(O)C(C)O5)C(CC)C(C)O4)OC(=O)C4C(/C=C/C2C)C42c4ccccc4-c4ccccc42)C32c3ccccc3-c3ccccc32)CC1OC1CC(O)C(O)C(C)O1 (centres unmarked) [Verbindung 15] | 20-30% | 60-70% | – |
| CCC1C(C)OC(O)(C(C)C(O)C(C)C2OC(=O)C3C(/C=C/C(C)C(C(C)C(O)C(C)C4(O)CC(OC5CC(O)C(O)C(C)O5)C(CC)C(C)O4)OC(=O)C4C(/C=C/C2C)ON(C)C4c2ccccc2)ON(C)C3c2ccccc2)CC1OC1CC(O)C(O)C(C)O1 (centres unmarked) [Verbindung 27] | 30-40% | – | 70-80% |
